The text below walks through data of PubChem BioAssay AID2685 (National Center for Advancing Translational Sciences (NCATS), 2010).

The nature of this test: qHTS Assay for Lipid Storage Modulators in Drosophila S3 Cells.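 As to cell number change: cells counted by Cell Tracker Red CMTPX staining in the red channel.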 The note with it: BODIPY lipid droplet fluorescence, 18-24 h; for cell number change: measured here: cell count max response, cells fed with added oleic acid. The method in brief:
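Drosophila S3 cells loaded with oleic acid (400 uM, as added) and compounds at several concentrations; lipid droplets imaged by 488-nm laser-scanning cytometry, 500–530 nm intensity and object ratio to cell channel. Percent activity normalized to 20 uM Triacsin C.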

The mark [1] stands for this setting: measured here: cell number channel AC50, cells fed with added oleic acid.
Setting [2] is: measured here: lipid fluorescence (Fed channel) AC50, cells fed with added oleic acid.

This is one part of the list. The main result of the screen is listed elsewhere. These columns were measured beside it and carry no call. Most of these compounds were active or inconclusive in the main read-out, so they are no random draw. Potencies come from curve fits of mixed quality, noted in brackets.

As for `O=C(Nc1cccc(Cl)c1)C1=Cc2cc(Cl)ccc2OC1`, the cell number change was -11.3%. Take `O=C(c1cccc(N2C(=O)C3C4C=CC(C4)C3C2=O)c1)N1CCN(c2ccccc2Cl)CC1` (stereo not drawn): the cell number change is 5.2%. As a reminder, the AC50 is the concentration at which the activity in the assay is half-maximal. As to `CN1CCN(c2nc3c(c(=O)n(C)c(=O)n3C)n2Cc2ccccc2F)CC1`, the cell number change amounted to 32.8%. In addition, the AC50 under setting [1] was 32.6 µM [rising, single point]. `Cc1ccc(Oc2ncccc2/C=N/OCc2ccc(Cl)c(Cl)c2)cc1`: the cell number change was -18.5%.

For `Cc1nn(C)c(C)c1CN(C(=O)CCc1nnc(Cc2c[nH]c3ccccc23)o1)C(C)C`, the cell number change was -56.7%. For the same compound, the concentration at half-maximal activity (AC50) under setting [1] was 10.3 µM [falling, partial curve]. Further, the concentration at half-maximal activity (AC50) under setting [2] was 20.6 µM [falling, single point]. Take `O=C(COc1ccc(Cl)cc1)Nc1ccc(Cl)cn1`: the cell number change was -6.27%.

Turning to `Cn1cc(Br)c(C(=O)Nc2sc3c(c2C(N)=O)CCC3)n1`, the cell number change was determined as 30.6%. Further, under setting [1], the AC50 is 1.84 µM [rising, partial curve, poor fit]. In addition, the concentration at half-maximal activity (AC50) under setting [2] is 6.51 µM [rising, partial curve]. As to `COc1cccc(NS(=O)(=O)c2ccc3[nH]cc(C(=O)N(C)Cc4ccco4)c(=O)c3c2)c1`, the cell number change is -2.26%. The AC50 under setting [2] was 1.64 µM [falling, full curve, poor fit]. On to `O=C(COC(=O)C1CCCCC1C(=O)N1CCc2ccccc21)NCc1ccco1` (stereo not drawn), for which the cell number change turned out to be 26.2%. Moreover, the concentration at half-maximal activity (AC50) under setting [1] was 0.92 µM [rising, full curve, poor fit]. The AC50 under setting [2] was 0.82 µM [falling, full curve, poor fit]. For `Cc1nc2ccccc2n1CC(=O)OCC(=O)NC1CC1`, the cell number change is -19.8%. For `CC1CCCN(S(=O)(=O)CCNC(=O)c2ccc3c(c2)OCO3)C1` (stereo not drawn), the cell number change was -25%. Further, under setting [1], the half-maximal activity concentration (AC50) was 0.00517 µM [falling, full curve, poor fit]. Besides, the half-maximal activity concentration (AC50) under setting [2] is 0.58 µM [rising, single point]. For the compound `O=C(NCc1nnc(SCc2ccc(F)cc2)n1-c1ccc(F)cc1)C12CC3CC(CC(C3)C1)C2`, the cell number change was -60.3%. Besides, the AC50 under setting [1] was 18.4 µM [falling, single point].

As for `CCOc1cc(/C=N/NC(=O)c2cc(C3CC3)[nH]n2)ccc1O`, the AC50 under setting [1] was 0.00461 µM [rising, full curve, poor fit] and the AC50 under setting [2] is 0.00411 µM [rising, partial curve, poor fit]. With `COCC1CCCN(C(=O)c2cc(COc3cccc4cccnc34)on2)C1` (stereo not drawn), the cell number change is -2.35%. The AC50 under setting [2] was 29.1 µM [falling, single point]. With `CCCCN(C(=O)CCC(=O)O)C1CC(=O)N(c2ccc(OCCC)cc2)C1=O` (stereo not drawn), the cell number change is -35.1%. In addition, the half-maximal activity concentration (AC50) under setting [1] is 32.6 µM [falling, single point]. Consider `CC(C)(C)N(Cc1cc2ccccc2[nH]c1=O)C(=O)c1cccnc1`, for which the cell number change worked out at 21%. Moreover, the AC50 under setting [1] is 0.259 µM [rising, full curve, poor fit]. Also, the AC50 under setting [2] was 0.291 µM [rising, partial curve, poor fit]. Take `O=C(NCCCN1CCCC1)c1ccc2c(c1)N(Cc1ccccc1F)C(=O)c1ccccc1S2(=O)=O`: the concentration at half-maximal activity (AC50) under setting [2] is 16.4 µM [rising, partial curve].

Consider `COc1ccc(/C=N/NC(=O)CCSc2nc3ccccc3s2)cc1`, for which the cell number change turned out to be 2.22%. Moreover, under setting [2], the half-maximal activity concentration (AC50) was 0.164 µM [rising, full curve, poor fit]. Turning to `C1=CC2C3C=CC(C3)C2C1` (stereo not drawn), the cell number change is -5.76%. Moreover, the AC50 under setting [2] is 0.517 µM [rising, single point]. Take `Cc1ccc(C(=O)ONC(=O)c2ccc(Cl)cc2)cc1[N+](=O)[O-]`: the cell number change amounted to 20.6%. For the compound `COc1ccc(NC(=S)N(CCN2CCOCC2)Cc2ccccc2F)cc1`, the cell number change was -12.3%. Under setting [1], the AC50 is 6.51 µM [falling, single point]. In the case of `CCC(CCCO)CCC[C@H](C)CCC1OCCO1` (stereo partly drawn), the cell number change is -11.6%. In addition, under setting [2], the AC50 is 0.116 µM [falling, full curve, poor fit]. Turning to `O=C(NCc1ccc(F)cc1)c1c(O)c2cccc3c2n(c1=O)CCC3`, the cell number change is -1.59%. In the case of `CCOC(=O)c1c(NC(=O)COC(=O)Cn2cnc3ccccc32)sc(C)c1C`, the cell number change is -20.4%. For the same compound, the half-maximal activity concentration (AC50) under setting [2] was 29.1 µM [rising, single point]. Turning to `COc1ccc(CCNC(=S)Nc2ccc(C(C)C)cc2)cc1`, the cell number change was found to be 3.31%. For the same compound, under setting [2], the half-maximal activity concentration (AC50) was 0.461 µM [falling, single point]. Take `Cc1ccc(N(C(C)C(=O)O)S(=O)(=O)c2c(C)[nH]c(=O)[nH]c2=O)cc1` (stereo not drawn): the cell number change amounted to 0.921%. Besides, the AC50 under setting [2] is 0.0116 µM [falling, single point]. For `Nc1c(C(=O)NCc2ccco2)nnn1-c1ccccc1`, the cell number change is -3.16%. Same read-out and setting: to `Nc1nonc1-n1nnc(C(=O)N/N=C/c2ccc3c(c2)OCO3)c1-c1ccccc1` belongs 27.5%. Consider `Cn1nnc(NC(=O)c2cccc(F)c2)n1`, for which the cell number change stood at 8.32%. Moreover, the AC50 under setting [2] was 29.1 µM [falling, single point].

On to `COCCNC(=O)NC(=O)COC(=O)C1(c2ccc(Cl)cc2)CC1`, for which the cell number change came out at 25.9%. The concentration at half-maximal activity (AC50) under setting [2] is 29.1 µM [rising, single point]. Turning to `S=C(Nc1ccccc1Cl)N1CCOCC1`, the cell number change was -9.31%. In addition, under setting [2], the concentration at half-maximal activity (AC50) is 6.51 µM [falling, single point]. `Cc1ccccc1Nc1nc(N)nc(COC(=O)c2cccn2C)n1`: the cell number change was -4.81%. In addition, the AC50 under setting [2] is 6.51 µM [rising, single point]. For `COc1cccc(N2CC(=O)N(NC(=O)CSc3nc(C)cc(C)c3C#N)CC2=O)c1`, the cell number change worked out at 23.2%. The AC50 under setting [2] was 0.103 µM [rising, full curve, poor fit]. As to `CCOc1ccc(N2CC(C(=O)NCCc3c[nH]c4ccc(OC)cc34)CC2=O)cc1` (stereo not drawn), the cell number change worked out at 2.78%.

In the case of `COc1cccc2cc(C(=O)NCc3ccco3)c(=O)oc12`, the cell number change worked out at 20.6%. For the same compound, the AC50 under setting [2] is 3.66 µM [rising, partial curve, poor fit]. As for `CCCCn1cc(S(=O)(=O)c2ccccc2)c(=O)c2cc(C)ccc21`, the AC50 under setting [2] was 29.1 µM [rising, single point]. Turning to `CCCn1c2ccccc2c2nnc(SCC(=O)Nc3c(C)n(C)n(-c4ccccc4)c3=O)nc21`, the cell number change stood at 0.781%. In the case of `Cc1ccc(OCCC(=O)Nc2ccccc2C(=O)NC2CC2)cc1`, the cell number change came out at 13%.

`COc1cc(NC(=O)CN2CCC(Cc3ccccc3)CC2)c(C)cc1[N+](=O)[O-]`: the cell number change was -32.3%. Besides, the AC50 under setting [1] is 29.1 µM [falling, single point]. For the same compound, the AC50 under setting [2] is 0.082 µM [falling, full curve, poor fit]. On to `CCCc1ccc2oc(C(=O)NCCc3nc(C(=O)OCC)cs3)c(C)c2c1`, for which the cell number change was -14.1%. For the compound `CCN(c1ccccc1)S(=O)(=O)c1ccc(OC)c(NC(=O)Cc2ccccc2OC)c1`, the cell number change is -10.4%. In addition, the AC50 under setting [2] was 0.92 µM [rising, partial curve].
